# Screening data, single-dose tests

T. brucei: 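Whole-parasite assay of Trypanosoma brucei over 72 hours; the read-out is not stated. Tested at 30 µM. Direction is inferred from retests: higher values go with stronger inhibition. Values scatter widely below zero; nearly all retest evidence comes from the higher of the two concentrations used. Size under these conditions: about 64,000 compounds, about 940 of them at 50% or above in at least one test.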
Leishmania in macrophages: 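Cell assay of Leishmania donovani living inside macrophages; the read-out is not stated. Compounds at 30 µM. The record gives no direction; compounds that gave an IC50 in retests scored well above the rest, so higher reads as stronger inhibition. About 69,000 compounds were tested under these conditions; 1.5% (about 1,000) showed 50% or more at least once.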
Toxoplasma: 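Assay of Toxoplasma gondii numbers, read through their beta-galactosidase reporter with a colour substrate. Concentration: 10 µM. The record gives no direction; the compounds picked for IC50 retests had high values, so higher reads as fewer parasites. Of about 67,000 compounds tested this way, about 260 (0.38%) reached 50% or more in at least one test.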

Results are given as percent effect.
The controls that fix the scale are not given in the record; negative values are as filed.
The compounds are a random part of those screened.
Two or more numbers in one place are separate tests of the same structure; such repeats can differ widely.

- COc1ccc(CNC(=O)CCN2C[C@@H](C)[C@](O)(C3CC3)C2)cc1 : T. brucei: -19.17%; Leishmania in macrophages: 24.59%; Toxoplasma: -8.739%
- Cn1cc(CCNCc2cc(Cl)c3c(c2)OCCO3)cn1 : Leishmania in macrophages: 34.48%; Toxoplasma: 2.156%
- Nc1cc(-c2c[nH]nc2C2CCCCN2C(=O)C2CCCC2)ccn1 (stereo not shown) : T. brucei: 11.59%; Leishmania in macrophages: 12.99%; Toxoplasma: -17.94%
- COc1cccc(OCC2CCCN(C3CCN(C(C)=O)CC3)C2)c1 (stereo not shown) : T. brucei: -16.83%; Leishmania in macrophages: 39.53%; Toxoplasma: -4.039%
- Cn1cc(NC(=O)CNC(=O)N2CCN(c3ccc(Cl)cc3)CC2)cn1 : T. brucei: 4.499%; Leishmania in macrophages: 11.19%; Toxoplasma: -9.465%
- CCN1C(=O)CCC12CCCN(Cc1nccs1)CC2.O=C(O)C(F)(F)F (stereo not shown) : T. brucei: 18.73%; Leishmania in macrophages: -12.85%; Toxoplasma: 3.161%
- CCc1[nH]ncc1C(=O)N1CCCC(n2nc(C)cc2C)C1 (stereo not shown) : T. brucei: -6.288%; Leishmania in macrophages: -28.07%; Toxoplasma: -13.97%
- CN1C(=O)C(C)(C)COc2cc(NS(=O)(=O)c3ccccc3)ccc21 : T. brucei: -77.38%; Leishmania in macrophages: 40.52%; Toxoplasma: 4.379%
- Cc1ncc(CNC(=O)N(C)C2CCN(c3ccccc3)C2=O)s1 (stereo not shown) : T. brucei: -15.83%; Leishmania in macrophages: -17.04%; Toxoplasma: -45.87%
- Cc1cnc(C(=O)NCc2ccc3c(c2)CCCN3C)cn1 : T. brucei: 13.9%; Leishmania in macrophages: -2.095%; Toxoplasma: -15.75%
- COc1cccc(Cn2cccc(C#N)c2=O)c1 : T. brucei: -35.6%; Leishmania in macrophages: 11.57%; Toxoplasma: 0.5057%
- [H][C@@]12CS(=O)(=O)C[C@]1([H])N(C(=O)c1cc(F)cc(Cl)c1)CCN2CCO : T. brucei: -57.5%; Leishmania in macrophages: 8.34%; Toxoplasma: 3.724%
- Cc1ncsc1C(=O)N1CCN(Cc2cscn2)CC1 : T. brucei: -0.06947%; Leishmania in macrophages: 7.732%; Toxoplasma: 7.851%
- Cc1cc(N2CCOC(C(F)(F)F)C2)nc(-c2ccccc2)n1 (stereo not shown) : T. brucei: 0.119%; Leishmania in macrophages: 3.826%; Toxoplasma: 0.2647%
- CN(C)c1cc(CNC(=O)Nc2ccc(S(C)(=O)=O)nc2)ccn1 : T. brucei: 0.4822%; Leishmania in macrophages: 20.87%; Toxoplasma: -20.98%
- O=C(O)C(F)(F)F.[H][C@@]12CN(Cc3ccoc3)CCO[C@]1([H])CN(S(=O)(=O)C1CC1)C2 : T. brucei: -38.62%; Leishmania in macrophages: 8.587%; Toxoplasma: -3.457%
- COCCc1ncc(CN2CCC3(CCCN(CC4CC4)C3)C2)cn1 (stereo not shown) : T. brucei: -8.007%; Leishmania in macrophages: -3.815%; Toxoplasma: 9.169%
- CNc1cc(C)nc(-c2cc(NC3CCNCC3)nc3[nH]ccc23)n1 : T. brucei: -8.855%; Leishmania in macrophages: 6.813%; Toxoplasma: -6.581%
- CCC(=O)N1CCCN(C(=O)C2SCCc3sccc32)CC1 (stereo not shown) : T. brucei: -82.49%; Leishmania in macrophages: -46.37%; Toxoplasma: -0.911%
- CNC(=O)CN(C)C(=O)c1cc(Cl)c(I)cc1OC : T. brucei: -51.19%; Leishmania in macrophages: 21.85% & 4.949%; Toxoplasma: 12.94%
- Cc1ccc(OCCC(=O)N2CCN(c3cnccn3)CC2)cc1C : T. brucei: 0.1864%; Leishmania in macrophages: 4.843%; Toxoplasma: 2.67%
- COCc1cc(O)nc(C2CCCN(Cc3cc(OC)ccc3F)C2)n1 (stereo not shown) : T. brucei: -29.53%; Leishmania in macrophages: -9.733%; Toxoplasma: 7.751%
- CCCN1CCC(Cc2noc(-c3cc4cccnc4nc3C)n2)CC1 : T. brucei: -5.246%; Leishmania in macrophages: 32.81%; Toxoplasma: -3.993%
- CC(O)c1cn(C2CCN(C(=O)C3(C)CCCCC3)CC2)nn1 (stereo not shown) : Leishmania in macrophages: -20.82%; Toxoplasma: -26.27%
- CN1Cc2ccccc2CC1C(=O)N1CCN(CCS(C)(=O)=O)CC1 (stereo not shown) : T. brucei: -64.72%; Leishmania in macrophages: -7.608%; Toxoplasma: 6.368%
- OCc1ccc(CN(CCCn2ccnc2)Cc2ccncc2)o1 : T. brucei: 13%; Leishmania in macrophages: -10.93%; Toxoplasma: 21.97%

Once more, the final 2:

With CN1Cc2ccccc2CC1C(=O)N1CCN(CCS(C)(=O)=O)CC1 (stereo not shown) the screen gave T. brucei: -64.72%; Leishmania in macrophages: -7.608%; Toxoplasma: 6.368%.
With OCc1ccc(CN(CCCn2ccnc2)Cc2ccncc2)o1 the screen gave T. brucei: 13%; Leishmania in macrophages: -10.93%; Toxoplasma: 21.97%.

From ChEMBL document CHEMBL3988442, “University of Dundee, Small-Polar-MMV Screening Library” (2021).